Measurements published in EP4778941A1 (priority 2023, dated 2025).

Test: general procedure: solution-phase peptide synthesis; 4-(4,6-dimethoxy-1,3,5-triazin-2-yl)-4-methylmorpholinium chloride
Details: coupling step, UPLC, ACQUITY UPLC BEHC18 1.7 µm […] 50 mm; run 1

| Substance | final HPLC purity [%] |
| --- | --- |
| N-((2S,10S)-10-Benzyl-2-cyclopropyl-1-(((1S,9S)-9-ethyl-5-fluoro-9-hydroxy-4-methyl -10,13-dioxo-2,3,9,10,13,15-hexahydro-1H,12H-benzo[de]pyrano[3',4':6,7]indolizino[1, 2-b]quinolin-1-yl)amino)-1,6,9,12,15-pentaoxo-3-oxa-5,8,11,14-tetraazahexadec-16-yl) -6-(2,5-dioxo-2,5-dihydro-1H-pyrrol-1-yl)hexan [9-B] | 89 |
| N-((2S,10S)-10-Benzyl-2-cyclopropyl-1-(((1S,9S)-9-ethyl-5-fluoro-9-hydroxy-4-methyl -10,13-dioxo-2,3,9,10,13,15-hexahydro-1H,12H-benzo[de]pyrano[3',4':6,7]indolizino[1, 2-b]quinolin-1-yl)amino)-1,6,9,12,15-pentaoxo-3-oxa-5,8,11,14-tetraazahexadec-16-yl) -6-(2,5-dioxo-2,5-dihydro-1H-pyrrol-1-yl)hexan [9-A] | 85 |
